# Source: PubChem BioAssay (NCATS)
# Where “and” joins values, the source holds several entries; their conditions need not be identical. Equal entries are not always repeated. Inconclusive means that the source gave no clear call. Such entries were picked first, then a sample of the others. A potency beside an inconclusive call is a rough fit, not a confirmed value. Where a structure was tested more than once in an assay, its records may differ in their call. Calls of active or inactive are those of the source. Calls follow the shape of the dose curve; as a rule, active = well fitted curve in the direction sought with a large enough effect; inconclusive = small, poorly fitted or top-dose-only effect, or another doubt; inactive = no such curve, though single readings can be large; an effect the other way counts as inactive or inconclusive.
# Test: Identifying Small Molecule Inhibitors of Pancreatic Cancer Stem Cells (Panc1, Adherent) (AID 1259362);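 as to viability, % of control: compound exposure lasted 48 h before the viability read; plate controls were DMSO-treated cells for no effect and cell-free media wells for full effect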
# Details: Potency: viability unless noted; viability, % of control: at 46.1 µM (top of the series) unless noted
# How it was run: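 Viability is scored by CellTiter-Glo luminescence 48 h after dosing, expressed as percent activity against vehicle and no-cell references. Spheroid formats rely on cells cultured 14 days in stem cell media beforehand.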
# Potency is read from the fitted curve at half-maximal effect.
Structure (SMILES),"viability, % of control",Potency
CC(C)C[C@H](NC(=O)[C@@H](O)[C@H](N)Cc1ccccc1)C(=O)O,inconclusive: 102%,–
CC[C@@H]1C(=O)N(C)c2cnc(Nc3ccc(C(=O)NC4CCN(C)CC4)cc3OC)nc2N1C1CCCC1,–,active: 9.3 nM
Cc1ccc(C(=O)N(CCCN)[C@@H](c2nc3cc(Cl)ccc3c(=O)n2Cc2ccccc2)C(C)C)cc1,–,"inconclusive: 1.2 nM [cytotoxic, full curve, poor fit]"
CCOc1cc(C=C2C(=O)N(c3ccccc3)N=C2C)cc(Cl)c1OCC(=O)OC,–,"inconclusive: 33200 nM [cytotoxic, single point]"
C[C@@H](N)C1CCC(C(=O)Nc2ccncc2)CC1 (stereo partly specified),–,"inconclusive: 332 nM [rising, partial curve, poor fit]"
CCc1cc(Nc2nccc(-c3c(-c4ccc(OC)c(C(=O)Nc5c(F)cccc5F)c4)nc4ccccn34)n2)c(OC)cc1N1CCC(N2CCN(S(C)(=O)=O)CC2)CC1,–,inactive

# Test: P-glycoprotein substrates identified in KB-8-5-11 adenocarcinoma cell line, qHTS therapeutic library screen (AID 1346987); also: nearly all actives have a fitted effect of over 65% in size
# Details: KB-8-5-11 (P-gp overexpressing) viability, CellTiter-Glo, 72 h; series mostly up to 44.5 µM
# How it was run: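 Human cervical adenocarcinoma KB-8-5-11 cells, selected in colchicine to over-express P-gp and assayed without it, were exposed for 72 h to titrated compounds. An ATP-based luminescent viability signal gave AC50.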
row,Structure (SMILES),Potency
1,CC(N[C@H]1CCCC[C@H]1NC(=O)c1ccc(Cl)cc1)c1cccc2ccccc12 (stereo partly specified),"inconclusive: 18.7 µM [inhibitor, partial curve, poor fit]"
2,Cc1ccc(C(N)=O)cc1Nc1nccc(-c2cn(C(C)C)c3cnccc23)n1,active: 20.6 µM
3,CC(C)C[C@H](NC(=O)[C@@H](O)[C@H](N)Cc1ccccc1)C(=O)O,active: 23.5 µM
4,CC[C@@H]1C(=O)N(C)c2cnc(Nc3ccc(C(=O)NC4CCN(C)CC4)cc3OC)nc2N1C1CCCC1,active: 0.418 µM
5,Cc1c(C)c2c(c(C)c1O)CCC(C)(COc1ccc(CC3SC(=O)NC3=O)cc1)O2 (stereo unspecified),"inconclusive: 20.6 µM [inhibitor, single point]"
6,CCOc1cc(C=C2C(=O)N(c3ccccc3)N=C2C)cc(Cl)c1OCC(=O)OC,inactive
7,CCN1CCN(CC(=O)Nc2ccc(-c3cccc4c(=O)cc(N5CCOCC5)oc34)c3sc4ccccc4c23)CC1,"inconclusive: 3.76 µM [inhibitor, single point]"
8,CCCCCCNC(=O)n1cc(F)c(=O)[nH]c1=O,"active: 6.51 µM and inconclusive: 16.6 µM [inhibitor, partial curve]"
9,COc1ccccc1[C@H](c1cccc2ccccc12)[C@@](C)(C#N)C(=O)N1CCC(c2cccc(C(F)(F)F)c2)CC1,"inconclusive: 9.35 µM [inhibitor, partial curve]"
10,Cn1c(=O)c(-c2c(Cl)cccc2Cl)cc2cnc(Nc3cccc(C(=O)O)c3)nc21,active: 4.61 µM
11,Nc1ccn([C@@H]2O[C@H](CO)[C@@H](O)C2O)c(=O)n1 (stereo partly specified),inactive
12,Cc1cc2c(C(C)C)c(O)c(O)c(C=O)c2c(O)c1-c1c(C)cc2c(C(C)C)c(O)c(O)c(C=O)c2c1O,"inconclusive: 23.1 µM [inhibitor, single point] and active: 11.8 µM"
13,C[C@@H](c1ncncc1F)[C@](O)(Cn1cncn1)c1ccc(F)cc1F,"inconclusive: 37.2 µM [inhibitor, partial curve, poor fit]"
14,C[C@@H](N)C1CCC(C(=O)Nc2ccncc2)CC1 (stereo partly specified),inactive
15,Clc1ccc(Nc2nnc(Cc3ccncc3)c3ccccc23)cc1,"inconclusive: 25.9 µM [inhibitor, single point] and inconclusive: 16.4 µM [inhibitor, single point]"
16,Cc1ccc(S(=O)(=O)Nc2cc(Cl)ccc2C(=O)Nc2nc(-c3ccccc3)cs2)cc1,"inconclusive: 29.6 µM [inhibitor, single point]"
17,CCn1c(-c2nonc2N)nc2cnc(Oc3cccc(NC(=O)c4ccc(OCCN5CCOCC5)cc4)c3)cc21,"inconclusive: 5.9 µM [inhibitor, full curve] and active: 1.64 µM"
18,CCc1cc(Nc2nccc(-c3c(-c4ccc(OC)c(C(=O)Nc5c(F)cccc5F)c4)nc4ccccn34)n2)c(OC)cc1N1CCC(N2CCN(S(C)(=O)=O)CC2)CC1,"inconclusive: 9.2 µM [inhibitor, partial curve]"
19,Cc1nn(Cc2ccccc2Cl)c(C)c1CN(C)CC(O)COc1ccc(Cl)cc1 (stereo unspecified),"inconclusive: 26.4 µM [inhibitor, partial curve]"
20,CCc1cccc(CC)c1NC(=O)N1Cc2[nH]nc(NC(=O)c3ccc(N4CCN(C)CC4)cc3)c2C1,inactive

# Some of the entries above in a different format.
row	Structure (SMILES)	Potency
14	C[C@@H](N)C1CCC(C(=O)Nc2ccncc2)CC1 (stereo partly specified)	inactive
15	Clc1ccc(Nc2nnc(Cc3ccncc3)c3ccccc23)cc1	inconclusive: 25.9 µM [inhibitor, single point] and inconclusive: 16.4 µM [inhibitor, single point]
16	Cc1ccc(S(=O)(=O)Nc2cc(Cl)ccc2C(=O)Nc2nc(-c3ccccc3)cs2)cc1	inconclusive: 29.6 µM [inhibitor, single point]
17	CCn1c(-c2nonc2N)nc2cnc(Oc3cccc(NC(=O)c4ccc(OCCN5CCOCC5)cc4)c3)cc21	inconclusive: 5.9 µM [inhibitor, full curve] and active: 1.64 µM
